Results taken from US20090099094A1, “Use of Somatostatin Agonists to Treat Medullary Thyroid Carcinoma” (priority 2007, published 2009).
At least one compound was matched to its structure with a doubt left.

Chains of the proteins cited; added tags and fusions are not shown. Lines headed by an entry give the natural chain unless they say otherwise; changes in a name come on top.
UniProt P30872: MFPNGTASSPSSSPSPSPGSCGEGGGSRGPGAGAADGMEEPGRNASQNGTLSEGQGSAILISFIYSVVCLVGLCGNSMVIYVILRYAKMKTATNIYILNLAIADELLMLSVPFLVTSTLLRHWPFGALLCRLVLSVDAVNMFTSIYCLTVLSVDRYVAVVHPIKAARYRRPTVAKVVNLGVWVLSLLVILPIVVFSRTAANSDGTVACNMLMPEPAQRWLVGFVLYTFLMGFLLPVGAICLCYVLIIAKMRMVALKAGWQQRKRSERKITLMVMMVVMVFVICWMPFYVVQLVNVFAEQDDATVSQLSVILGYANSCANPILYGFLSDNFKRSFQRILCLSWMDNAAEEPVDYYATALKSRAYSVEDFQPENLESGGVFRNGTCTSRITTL
UniProt P32745: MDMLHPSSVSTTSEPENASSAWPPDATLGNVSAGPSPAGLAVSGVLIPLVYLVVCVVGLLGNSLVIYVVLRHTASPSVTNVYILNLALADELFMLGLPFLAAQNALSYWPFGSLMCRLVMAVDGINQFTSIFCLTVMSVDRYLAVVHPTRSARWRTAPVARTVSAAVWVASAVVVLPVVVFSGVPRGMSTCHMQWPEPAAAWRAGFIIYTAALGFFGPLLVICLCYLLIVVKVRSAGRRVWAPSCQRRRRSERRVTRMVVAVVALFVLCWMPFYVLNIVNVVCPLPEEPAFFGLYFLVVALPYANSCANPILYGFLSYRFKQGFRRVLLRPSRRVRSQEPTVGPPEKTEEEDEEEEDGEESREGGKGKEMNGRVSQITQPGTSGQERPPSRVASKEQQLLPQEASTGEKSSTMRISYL
UniProt P31391: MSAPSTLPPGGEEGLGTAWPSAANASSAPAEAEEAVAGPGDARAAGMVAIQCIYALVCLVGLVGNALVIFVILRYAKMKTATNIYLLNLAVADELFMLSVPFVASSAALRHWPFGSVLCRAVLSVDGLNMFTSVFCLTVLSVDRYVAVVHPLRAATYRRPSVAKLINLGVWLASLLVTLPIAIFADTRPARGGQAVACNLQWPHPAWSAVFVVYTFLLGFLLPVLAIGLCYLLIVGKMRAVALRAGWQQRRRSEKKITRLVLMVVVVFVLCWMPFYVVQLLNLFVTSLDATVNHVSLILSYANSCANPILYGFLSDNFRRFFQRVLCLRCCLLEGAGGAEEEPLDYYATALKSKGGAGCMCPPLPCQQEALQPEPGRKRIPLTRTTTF
UniProt P30874: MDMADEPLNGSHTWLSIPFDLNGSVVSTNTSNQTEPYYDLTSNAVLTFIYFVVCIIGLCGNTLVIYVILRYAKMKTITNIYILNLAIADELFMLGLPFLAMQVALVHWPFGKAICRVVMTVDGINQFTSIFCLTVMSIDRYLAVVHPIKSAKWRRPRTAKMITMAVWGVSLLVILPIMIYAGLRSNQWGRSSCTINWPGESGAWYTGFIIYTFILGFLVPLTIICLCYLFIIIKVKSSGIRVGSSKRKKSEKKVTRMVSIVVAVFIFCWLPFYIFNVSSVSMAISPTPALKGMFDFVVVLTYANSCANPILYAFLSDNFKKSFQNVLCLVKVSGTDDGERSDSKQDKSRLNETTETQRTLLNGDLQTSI

Legend:
[1] = target: SSTR1 (Homo sapiens, UniProt P30872); experiment: SSTR receptor binding affinity (Ki), SSTR1; conditions: read-out: SSTR Specificity Ki SSTR1
[2] = target: SSTR3 (Homo sapiens, UniProt P32745); experiment: SSTR receptor binding affinity (Ki), SSTR3; conditions: read-out: SSTR Specificity Ki SSTR3
[3] = target: SSTR4 (Homo sapiens, UniProt P31391); experiment: SSTR receptor binding affinity (Ki), SSTR4; conditions: read-out: SSTR Specificity Ki SSTR4
[4] = target: SSTR2 (Homo sapiens, UniProt P30874); experiment: SSTR receptor binding affinity (Ki), SSTR2; conditions: read-out: SSTR Specificity Ki SSTR2

With `CCCN1C[C@H](CSCC(=O)NCCCC[C@@H](NC(=O)CSC[C@@H]2C[C@@H]3c4cccc5[nH]cc(c45)C[C@H]3N(CCC)C2)C(=O)N[C@H]2CSSC[C@@H](C(=O)N[C@H](C(N)=O)[C@@H](C)O)NC(=O)[C@H](CC)NC(=O)[C@H](CCCCN)NC(=O)[C@@H](Cc3c[nH]c4ccccc34)NC(=O)[C@H](Cc3ccc(O)cc3)NC2=O)C[C@@H]2c3cccc4[nH]cc(c34)C[C@H]21` [Dop2-D-Lys(Dop2)-c[Cys-Tyr-D-Trp-Lys-Abu-Cys]-Thr-NH2] the Ki [1] was 674 nM, the Ki [2] was 99.2 nM and the Ki [3] was > 1000 nM. The Ki [4] was 0.14 nM.
